Assay results: patent publication US20220356428A1, “PANCREAS-ON-A-CHIP AND USES THEREOF” (Children's Hospital Medical Center, priority 2019, published 2022)
At least one structure is not confirmed: it was looked up by name or label, or the drawing left a doubt.

Amino acid sequences for entries named in this document (tags omitted).
UniProt P13569, whole entry: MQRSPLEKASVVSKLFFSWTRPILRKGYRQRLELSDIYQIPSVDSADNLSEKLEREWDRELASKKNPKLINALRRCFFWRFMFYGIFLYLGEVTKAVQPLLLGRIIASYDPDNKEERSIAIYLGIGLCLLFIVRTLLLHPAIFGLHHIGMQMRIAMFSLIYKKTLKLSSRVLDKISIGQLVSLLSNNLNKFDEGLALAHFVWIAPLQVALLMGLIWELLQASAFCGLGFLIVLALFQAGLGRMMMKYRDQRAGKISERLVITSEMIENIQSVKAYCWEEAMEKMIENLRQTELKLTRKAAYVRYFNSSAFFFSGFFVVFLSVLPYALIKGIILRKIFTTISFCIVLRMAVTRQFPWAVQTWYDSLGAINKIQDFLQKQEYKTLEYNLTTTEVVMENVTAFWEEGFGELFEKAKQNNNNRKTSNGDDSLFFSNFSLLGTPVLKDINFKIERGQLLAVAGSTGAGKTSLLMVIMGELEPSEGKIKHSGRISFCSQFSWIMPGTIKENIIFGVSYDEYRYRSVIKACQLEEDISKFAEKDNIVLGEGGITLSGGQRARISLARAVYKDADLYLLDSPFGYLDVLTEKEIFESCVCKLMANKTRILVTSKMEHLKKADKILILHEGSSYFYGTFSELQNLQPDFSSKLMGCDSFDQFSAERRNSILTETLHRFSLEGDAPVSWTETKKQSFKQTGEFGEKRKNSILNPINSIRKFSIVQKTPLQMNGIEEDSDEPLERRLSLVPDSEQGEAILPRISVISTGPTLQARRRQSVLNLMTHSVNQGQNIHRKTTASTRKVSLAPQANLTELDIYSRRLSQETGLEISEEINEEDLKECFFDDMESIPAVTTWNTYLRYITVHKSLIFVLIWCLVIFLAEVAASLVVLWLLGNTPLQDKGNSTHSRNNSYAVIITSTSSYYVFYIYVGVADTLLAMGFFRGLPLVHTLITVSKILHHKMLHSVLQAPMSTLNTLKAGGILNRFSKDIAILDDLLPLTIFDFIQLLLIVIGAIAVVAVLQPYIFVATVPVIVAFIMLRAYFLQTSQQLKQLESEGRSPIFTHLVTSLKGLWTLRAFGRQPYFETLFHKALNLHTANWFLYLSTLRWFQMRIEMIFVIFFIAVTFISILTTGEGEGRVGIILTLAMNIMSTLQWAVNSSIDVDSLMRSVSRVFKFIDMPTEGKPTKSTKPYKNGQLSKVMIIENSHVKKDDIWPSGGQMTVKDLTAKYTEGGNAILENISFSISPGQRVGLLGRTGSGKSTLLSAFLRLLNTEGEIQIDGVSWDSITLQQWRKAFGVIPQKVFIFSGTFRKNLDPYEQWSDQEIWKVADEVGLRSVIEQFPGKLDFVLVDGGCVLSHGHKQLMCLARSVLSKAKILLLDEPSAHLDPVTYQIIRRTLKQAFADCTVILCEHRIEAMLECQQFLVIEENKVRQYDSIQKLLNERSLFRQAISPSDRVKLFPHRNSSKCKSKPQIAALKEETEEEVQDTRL

How the values were obtained:
[1] = tested on: CFTR channel on the PDECs; assay: insulin secretion from islets in double-channel pancreas-on-a-chip after stimulation or inhibition of CFTR in PDECs (ELISA); assay type: cell-based, human
Procedure: Next, Applicant tested how CFTR function may affect insulin secretion from the islet cells in this double-channel chip system. Applicant measured secreted insulin in 1 h increments from pancreatic islets in the bottom chamber following stimulation or inhibition of CFTR channel function (FIG. 5E). […] Applicant examined if the CFTR inhibitor directly affects insulin secretion from the islet cells (FIG. 14). Applicant cultured islet cells in the double-channel chip without PDECs (FIG. 14A) or co-cultured with PDECs lacking pores on the membrane to perturb communication between PDECs and islet cells (FIG. 14B) and added 20 μM CFTR inn-172 to the top chamber. […] Additionally, Applicant monitored CFTR function using fluid secretion assay and endocrine function using enzyme-linked immunosorbent assay (ELISA) as described earlier prior to co-culture of the two cell types in pancreas-on-a-chip. […] Applicant co-cultured PDECs and islet cells in pancreas-on-a-chip and measured insulin secretion from the islet cells as described earlier.
Cell culture media were discarded just before collection for the measurement. […] Collected media were placed on ice until ready to assay. […] Insulin secretion was monitored by measuring concentration of insulin in the culture media using ELISA (Invitrogen; #KAQ1251) following a protocol provided by the company. […]

[2] = target: T1, CFTR channel (Homo sapiens, UniProt P13569); assay: short-circuit current (Isc) measurement in polarized monolayer of PDECs on trans-well membrane; assay type: cell-based
T1 construct: Applicant isolated PDECs and pancreatic islets from pancreatitis patients; endogenous in cells; host or cells: Primary human pancreatic ductal epithelial cells (PDECs) and ductal organoids from the pancreatic remnant cell pellets of TPIAT pancreatitis patients

C=C[C@@]1(C)CC(=O)[C@]2(O)[C@@]3(C)[C@@H](O)CCC(C)(C)[C@@H]3[C@H](O)[C@H](OC(C)=O)[C@@]2(C)O1 [FSK, forskolin]
effect on insulin secretion from islet cells ([1]; Chip A, 10 μM FSK, basal medium (100 mg/dL glucose)): did not significantly alter insulin secretion
effect on insulin secretion from islet cells ([1]; combination of FSK (10 μM) and CFTRinh-172 (20 μM) in top chamber): not altered
Isc peak (ΔIsc) ([2]; 10 μM FSK, apical side): 30 μA/cm2
effect on CFTR channel ([2]; FIG. 3 legend): activated
